Test results taken from PMC8497785, “Structural Characterization of the RNA-Binding Protein SERBP1 Reveals Intrinsic Disorder and Atypical RNA Binding Modes”.
Results are given in words; binding and its absence hold for the method and conditions named.

Legend:
SERBP1 189-400 [1] = molecular target: T1, SERBP1 189-400 (Homo sapiens, UniProt Q8NC51 189-400); assay: AUC; sedimentation velocity; 25 µM in 20 mM Na2HPO4 pH 7.0, 60 mM NaCl; without and with 2 M GdnHCl; 40000 rpm, 20°C; continuous c(s) model in SEDFIT; both purified
T1 sequence: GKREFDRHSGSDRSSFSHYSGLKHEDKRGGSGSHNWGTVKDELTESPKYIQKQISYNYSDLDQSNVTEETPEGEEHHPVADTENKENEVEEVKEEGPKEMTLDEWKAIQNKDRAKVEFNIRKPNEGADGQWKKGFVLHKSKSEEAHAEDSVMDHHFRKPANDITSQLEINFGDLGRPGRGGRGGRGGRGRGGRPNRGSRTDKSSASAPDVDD

SERBP1 189-400 [2] = molecular target: T1, SERBP1 189-400; assay: SEC; Superdex 200 10 x 300 mm; 200 µL of a 15 µM sample; 20 mM Na2HPO4 pH 6.9, 60 mM NaCl, 1 mM PMSF, 0.2 mM EDTA; without and with 2 M GdnHCl; oligomeric state of the protein alone; both purified
SERBP1 189-400 [3] = molecular target: T1, SERBP1 189-400; assay: dynamic light scattering; 125 µM in 20 mM Na2HPO4 pH 7.0, 60 mM NaCl; without and with 2 M GdnHCl; 20°C; hydrodynamic radius compared with the value calculated for a disordered monomer; both purified

B1: SERBP1 189–400 (domain or fragment, UniProt Q8NC51-1 189-400)
chain: T1 sequence
In the case of B1, the binding (SERBP1 189-400 [1]) is reported as “no binding (tested: 25 µM)”, the binding (SERBP1 189-400 [2]) is reported as “no binding (tested: 15 µM)” and the binding (SERBP1 189-400 [3]) is reported as “no binding (tested: 125 µM)”.
